Taken from: PubChem BioAssay AID1224828 (NIAID, 2016)
Here is an unselected part of about 17,000 reagents. In the full data, 762 (4.5%) got an active call. 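Active calls include both raised and lowered p65 entry, mostly lowered; wells with fewer than 50 cells lack a z-score.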 Raw values vary from plate to plate and are shown uncorrected. The numbers tell different reagents against one gene apart.

- Aim: 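Find genes required for NF-kappaB p65 moving into the nucleus after LPS in mouse macrophages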 (primary screen)
- System: mouse RAW264.7 G9 macrophage reporter cells (GFP-p65, Tnf promoter-mCherry)
- Knock-down reagent: siRNA pool against mouse genes, 100 nM
- Time to read-out: 2 days siRNA transfection, then 40 min LPS before fixation
- Conditions: LPS (Salmonella minnesota R595) at 10 ng/ml
- Measurement: 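Imaged p65 nuclear translocation ratio, normalised to the plate median, converted to robust z-scores and averaged across two replicates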
- Reading the numbers: p65 translocation robust z-score: higher = more nuclear NF-kappaB p65 after LPS than the plate median; nuclear/cytoplasmic p65 ratio: higher = more nuclear NF-kappaB p65
- Call rule: 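Called active when z exceeds 3.3 or falls under -1.56 (median of Tlr4 controls), giving activity score of at least 50; no calls for control wells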
- Meaning of the calls: active = hit (p65 shift raised or lowered); inactive = no clear change

After knock-down of Gtse1 (GeneID 29870), the record shows p65 translocation robust z-score 0.98; nuclear/cytoplasmic p65 ratio, rep 1 = 1.53; nuclear/cytoplasmic p65 ratio, rep 2 = 1.53; low cell count flag enough cells to score; inactive.
Depletion of Clec1a (GeneID 243653) resulted in: p65 translocation robust z-score -0.56; nuclear/cytoplasmic p65 ratio, rep 1 = 1.52; nuclear/cytoplasmic p65 ratio, rep 2 = 1.54; low cell count flag enough cells to score; inactive.
Hira (GeneID 15260) gave p65 translocation robust z-score -0.53; nuclear/cytoplasmic p65 ratio, rep 1 = 1.37; nuclear/cytoplasmic p65 ratio, rep 2 = 1.48; low cell count flag enough cells to score; inactive.
Eif4g2 (GeneID 13690) showed p65 translocation robust z-score -0.87; nuclear/cytoplasmic p65 ratio, rep 1 = 1.39; nuclear/cytoplasmic p65 ratio, rep 2 = 1.21; low cell count flag enough cells to score; inactive.
For Efr3a (GeneID 76740) #1, the entry reads p65 translocation robust z-score -1.37; nuclear/cytoplasmic p65 ratio, rep 1 = 1.16; nuclear/cytoplasmic p65 ratio, rep 2 = 1.55; low cell count flag enough cells to score; inactive.
Efr3a (GeneID 76740) #2 scored p65 translocation robust z-score -0.24; nuclear/cytoplasmic p65 ratio, rep 1 = 1.6; nuclear/cytoplasmic p65 ratio, rep 2 = 1.68; low cell count flag enough cells to score; inactive.
With knock-down of Usp6nl (GeneID 98910) the results were p65 translocation robust z-score -0.11; nuclear/cytoplasmic p65 ratio, rep 1 = 1.57; nuclear/cytoplasmic p65 ratio, rep 2 = 1.69; low cell count flag enough cells to score; inactive.
After knock-down of Ppp1r10 (GeneID 52040), the screen gave p65 translocation robust z-score -1.38; nuclear/cytoplasmic p65 ratio, rep 1 = 1.28; nuclear/cytoplasmic p65 ratio, rep 2 = 1.25; low cell count flag enough cells to score; inactive.
Cfl2 (GeneID 12632) showed p65 translocation robust z-score -0.29; nuclear/cytoplasmic p65 ratio, rep 1 = 1.48; nuclear/cytoplasmic p65 ratio, rep 2 = 1.81; low cell count flag enough cells to score; inactive.
Knock-down of Ppt2 (GeneID 54397) gave: p65 translocation robust z-score -2; nuclear/cytoplasmic p65 ratio, rep 1 = 1.04; nuclear/cytoplasmic p65 ratio, rep 2 = 1.06; low cell count flag enough cells to score; active.
Knock-down of Sap30bp (GeneID 57230) gave: p65 translocation robust z-score -0.83; nuclear/cytoplasmic p65 ratio, rep 1 = 1.29; nuclear/cytoplasmic p65 ratio, rep 2 = 1.3; low cell count flag enough cells to score; inactive.
For Serpina3c (GeneID 16625) the deposit lists p65 translocation robust z-score -0.02; nuclear/cytoplasmic p65 ratio, rep 1 = 1.41; nuclear/cytoplasmic p65 ratio, rep 2 = 1.24; low cell count flag enough cells to score; inactive.
Tmem161a (GeneID 234371) scored p65 translocation robust z-score 1.74; nuclear/cytoplasmic p65 ratio, rep 1 = 1.87; nuclear/cytoplasmic p65 ratio, rep 2 = 2.1; low cell count flag enough cells to score; inactive.
B3galt1 (GeneID 26877) gave p65 translocation robust z-score -0.37; nuclear/cytoplasmic p65 ratio, rep 1 = 1.67; nuclear/cytoplasmic p65 ratio, rep 2 = 1.34; low cell count flag enough cells to score; inactive.
Knock-down of Clrn1 (GeneID 229320) gave: p65 translocation robust z-score -0.11; nuclear/cytoplasmic p65 ratio, rep 1 = 1.54; nuclear/cytoplasmic p65 ratio, rep 2 = 1.45; low cell count flag enough cells to score; inactive.
Against Zfp160 (GeneID 224585) the deposit lists p65 translocation robust z-score 0.56; nuclear/cytoplasmic p65 ratio, rep 1 = 1.67; nuclear/cytoplasmic p65 ratio, rep 2 = 1.73; low cell count flag enough cells to score; inactive.
After knock-down of Mall (GeneID 228576) the results were p65 translocation robust z-score -0.53; nuclear/cytoplasmic p65 ratio, rep 1 = 1.48; nuclear/cytoplasmic p65 ratio, rep 2 = 1.59; low cell count flag enough cells to score; inactive.
Stk24 (GeneID 223255) showed p65 translocation robust z-score -0.31; nuclear/cytoplasmic p65 ratio, rep 1 = 1.67; nuclear/cytoplasmic p65 ratio, rep 2 = 1.32; low cell count flag enough cells to score; inactive.
Silencing of Aph1c (GeneID 68318) gave: p65 translocation robust z-score 1.48; nuclear/cytoplasmic p65 ratio, rep 1 = 1.7; nuclear/cytoplasmic p65 ratio, rep 2 = 1.69; low cell count flag enough cells to score; inactive.
Depletion of Gyg1 (GeneID 27357) resulted in: p65 translocation robust z-score 1.46; nuclear/cytoplasmic p65 ratio, rep 1 = 1.82; nuclear/cytoplasmic p65 ratio, rep 2 = 1.8; low cell count flag enough cells to score; inactive.
Silencing of Strip2 (GeneID 320609) gave: p65 translocation robust z-score 0.28; nuclear/cytoplasmic p65 ratio, rep 1 = 1.6; nuclear/cytoplasmic p65 ratio, rep 2 = 1.6; low cell count flag enough cells to score; inactive.
With knock-down of Ap2a2 (GeneID 11772), the record shows p65 translocation robust z-score -0.57; nuclear/cytoplasmic p65 ratio, rep 1 = 1.52; nuclear/cytoplasmic p65 ratio, rep 2 = 1.59; low cell count flag enough cells to score; inactive.
After knock-down of Rpl39 (GeneID 67248) the results were p65 translocation robust z-score -1.1; nuclear/cytoplasmic p65 ratio, rep 1 = 1.23; nuclear/cytoplasmic p65 ratio, rep 2 = 1.13; low cell count flag enough cells to score; inactive.
Against Api5 (GeneID 11800), the entry reads p65 translocation robust z-score -0.45; nuclear/cytoplasmic p65 ratio, rep 1 = 1.59; nuclear/cytoplasmic p65 ratio, rep 2 = 1.51; low cell count flag enough cells to score; inactive.
After knock-down of Eps15l1 (GeneID 13859), the screen gave p65 translocation robust z-score -1.09; nuclear/cytoplasmic p65 ratio, rep 1 = 1.3; nuclear/cytoplasmic p65 ratio, rep 2 = 1.24; low cell count flag enough cells to score; inactive.
Against Rpf1 (GeneID 70285), the values are nuclear/cytoplasmic p65 ratio, rep 1 = 1.34; nuclear/cytoplasmic p65 ratio, rep 2 = 1.28; low cell count flag fewer than 50 cells per well; well left out of scoring; inactive.
With knock-down of 2900026A02Rik (GeneID 243219), the screen gave nuclear/cytoplasmic p65 ratio, rep 1 = 1.33; nuclear/cytoplasmic p65 ratio, rep 2 = 1.17; low cell count flag fewer than 50 cells per well; well left out of scoring; inactive.

2 entries from above, reformatted:
Hira (GeneID 15260)
- p65 translocation robust z-score: -0.53
- nuclear/cytoplasmic p65 ratio, rep 1: 1.37
- nuclear/cytoplasmic p65 ratio, rep 2: 1.48
- low cell count flag: enough cells to score
- activity call: inactive

Eif4g2 (GeneID 13690)
- p65 translocation robust z-score: -0.87
- nuclear/cytoplasmic p65 ratio, rep 1: 1.39
- nuclear/cytoplasmic p65 ratio, rep 2: 1.21
- low cell count flag: enough cells to score
- activity call: inactive
